Data from patent publication US11220671B2, “Methods for the maturation of cardiomyocytes on amniotic fluid cell-derived ECM, cellular constructs, and uses for cardiotoxicity and proarrhythmic screening of drug compounds” (STEMBIOSYS, INC., priority 2019, dated 2022).

Experiment: Composition of amniotic fluid cell-derived ECM by mass spectrometry (total spectra count)
[1] = amniotic fluid cell-derived ECM Matrix A, mass spectrometry, label = protein component
[2] = amniotic fluid cell-derived ECM Matrix B, mass spectrometry, label = protein component
[3] = amniotic fluid cell-derived ECM Matrix C, mass spectrometry, label = protein component
[4] = amniotic fluid cell-derived ECM Matrix D, mass spectrometry, label = protein component
[5] = protein component found by mass spectrometry in amniotic fluid cell-derived ECM Matrix A (Example 1)
[6] = protein component found by mass spectrometry in amniotic fluid cell-derived ECM Matrix B (Example 1)
[7] = protein component found by mass spectrometry in amniotic fluid cell-derived ECM Matrix C (Example 1)
[8] = protein component found by mass spectrometry in amniotic fluid cell-derived ECM Matrix D (Example 1)

Substance	Total Spectra Count Matrix A [1]	Total Spectra Count Matrix B [2]	Total Spectra Count Matrix C [3]	Total Spectra Count Matrix D [4]	Total Spectra Count Matrix A [5]	Total Spectra Count Matrix B [6]	Total Spectra Count Matrix C [7]	Total Spectra Count Matrix D [8]
PDZ and LIM domain protein 4	0	3	0	0	–	–	–	–
Protein disulfide-isomerase	–	–	–	–	23	0	6	19
Pinin	0	6	2	4	–	–	–	–
Mucin-16	0	0	2	4	–	–	–	–
Fibronectin	–	–	–	–	802	13851	1138	781
Basement membrane-specific heparan sulfate proteoglycan core protein	–	–	–	–	202	0	402	338
Low-density lipoprotein receptor-related protein 1B	0	2	0	0	–	–	–	–
Voltage-dependent anion-selective channel protein 1	–	–	–	–	18	50	4	19
eIF-2-alpha kinase activator GCN1	–	–	–	–	14	0	0	6
Neuroblast differentiation-associated protein AHNAK	–	–	–	–	250	803	17	184
Laminin subunit beta-1	–	–	–	–	28	30	4	11
Nestin	0	18	0	0	–	–	–	–
Endoplasmin	–	–	–	–	29	71	3	22
Myosin-9	–	–	–	–	564	3923	295	340
Filaggrin-2	0	2	0	0	–	–	–	–
Cofilin-1	–	–	–	–	14	0	4	11
Triosephosphate isomerase	–	–	–	–	15	15	0	11
Pentraxin-related protein PTX3	0	23	0	0	–	–	–	–
14-3-3 protein zeta/delta	–	–	–	–	16	35	4	19
Peptidyl-prolyl cis-trans isomerase FKBP10	0	3	0	0	–	–	–	–
Microtubule-associated protein 1B	–	–	–	–	21	104	0	22
Vimentin	–	–	–	–	263	1179	178	338
Galectin-8	0	5	2	0	–	–	–	–
Heterogeneous nuclear ribonucleoprotein K	–	–	–	–	26	28	3	26
Thrombospondin-1	–	–	–	–	24	103	3	1
Platelet-activating factor acetylhydrolase IB subunit alpha	0	4	0	0	–	–	–	–

Substance	Total Spectra Count Matrix A [1]	Total Spectra Count Matrix B [2]	Total Spectra Count Matrix C [3]	Total Spectra Count Matrix D [4]	Total Spectra Count Matrix A [5]	Total Spectra Count Matrix B [6]	Total Spectra Count Matrix C [7]	Total Spectra Count Matrix D [8]
SWISS-PROT: P12763 (Bos taurus) Alpha-2-HS-glycoprotein precursor	–	–	–	–	30	42	18	19
Alpha-enolase	–	–	–	–	30	61	3	26
Neurobeachin	0	0	0	3	–	–	–	–
Isocitrate dehydrogenase [NADP] cytoplasmic	0	7	0	0	–	–	–	–
SWISS-PROT: P02070 (Bos taurus) Hemoglobin subunit beta	–	–	–	–	14	0	0	0
Probable maltase-glucoamylase 2	0	0	0	2	–	–	–	–
ATP-dependent 6-phosphofructokinase, platelet type	–	–	–	–	20	9	0	18
Eukaryotic initiation factor 4A-I	–	–	–	–	15	28	2	8
Heat shock-related 70 kDa protein 2	0	0	0	24	–	–	–	–
14-3-3 protein epsilon	–	–	–	–	15	26	3	16
T-complex protein 1 subunit gamma	–	–	–	–	23	72	17	26
Hemicentin-2	0	0	0	0	–	–	–	–
DNA-dependent protein kinase catalytic subunit	–	–	–	–	33	10	0	5
Galectin-3	0	39	0	0	–	–	–	–
Fibrous sheath-interacting protein 2	0	0	2	1	–	–	–	–
Nuclear receptor-binding protein	0	5	0	0	–	–	–	–
Peptidyl-prolyl cis-trans isomerase B	0	52	0	0	–	–	–	–
Lipoamide acyltransferase component of branched-chain alpha-keto acid dehydrogenase complex, mitochondrial	0	6	4	8	–	–	–	–
T-complex protein 1 subunit eta	–	–	–	–	20	72	15	22
Filaggrin	0	3	0	0	–	–	–	–
Laminin subunit gamma-1	–	–	–	–	18	48	0	6
Neurabin-2	0	3	0	0	–	–	–	–
Low-density lipoprotein receptor-related protein 2	0	0	0	2	–	–	–	–
FACT complex subunit SPT16	0	7	0	0	–	–	–	–
Homeobox protein Hox-B3	0	5	0	0	–	–	–	–
T-complex protein 1 subunit epsilon	–	–	–	–	17	110	18	22
